Measured values taken from publication PMC3963837.
Results are given in words; binding and its absence hold for the method and conditions named. In cells and extracts the contact can be indirect. Some results given as binding are weak or reduced against the parent protein; the word gives no strength.

Protein sequences, listed by entry. Tags and fused reporters are not part of them. Lines headed by an entry give the natural chain unless they say otherwise; changes in a name come on top.
UniProt P40645: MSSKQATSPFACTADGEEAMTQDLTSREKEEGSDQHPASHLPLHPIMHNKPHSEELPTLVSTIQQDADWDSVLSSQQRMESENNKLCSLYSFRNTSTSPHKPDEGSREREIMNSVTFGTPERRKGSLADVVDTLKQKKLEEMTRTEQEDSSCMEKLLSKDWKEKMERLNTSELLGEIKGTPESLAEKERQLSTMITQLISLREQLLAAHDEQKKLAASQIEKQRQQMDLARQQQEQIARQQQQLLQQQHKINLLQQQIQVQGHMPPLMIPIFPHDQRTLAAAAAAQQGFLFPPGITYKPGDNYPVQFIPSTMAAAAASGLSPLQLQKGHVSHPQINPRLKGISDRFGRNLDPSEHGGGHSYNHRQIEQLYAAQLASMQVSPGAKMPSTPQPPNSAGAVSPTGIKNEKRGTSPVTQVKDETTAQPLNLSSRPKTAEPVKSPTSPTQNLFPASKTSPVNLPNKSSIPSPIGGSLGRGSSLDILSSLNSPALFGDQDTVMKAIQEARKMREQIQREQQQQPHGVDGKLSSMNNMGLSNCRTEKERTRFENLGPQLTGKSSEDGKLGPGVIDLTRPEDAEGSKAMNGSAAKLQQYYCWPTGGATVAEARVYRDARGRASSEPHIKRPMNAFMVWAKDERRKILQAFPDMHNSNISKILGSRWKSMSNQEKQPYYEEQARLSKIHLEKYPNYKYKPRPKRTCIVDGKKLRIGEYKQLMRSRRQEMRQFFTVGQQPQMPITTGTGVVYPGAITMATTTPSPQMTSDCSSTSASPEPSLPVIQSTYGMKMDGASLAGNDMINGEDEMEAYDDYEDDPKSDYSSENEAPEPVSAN
UniProt P61809: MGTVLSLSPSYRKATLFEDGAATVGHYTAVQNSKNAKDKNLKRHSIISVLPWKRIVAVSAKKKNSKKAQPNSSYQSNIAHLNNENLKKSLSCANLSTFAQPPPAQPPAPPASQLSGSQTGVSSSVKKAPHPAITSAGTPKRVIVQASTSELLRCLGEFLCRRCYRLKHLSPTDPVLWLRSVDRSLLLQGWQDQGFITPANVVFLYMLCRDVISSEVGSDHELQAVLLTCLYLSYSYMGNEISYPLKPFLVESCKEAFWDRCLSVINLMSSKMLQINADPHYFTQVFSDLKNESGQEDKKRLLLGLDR

Columns and labels:
[1] = biological target: Sox6 (mouse (endogenous in PN0 brain, by the text; the legend says PN1 rat brain)) (UniProt P40645); experiment: co-IP; endogenous proteins from postnatal brain lysate; IP with Sox6 antisera, Cdk5 antisera or control rabbit serum, protein A-agarose, washed with lysis buffer (50 mM Tris-HCl pH 7.5, 150 mM NaCl, 10 mM EDTA, 2 mM EGTA, 1% NP-40), Western blot
[2] = biological target: Cdk5/p35 complex (mouse (endogenous in PN0 brain, by the text; the legend says PN1 rat brain)) (UniProt P49615+P61809); experiment: as above

| Substance | binding [1] | binding [2] |
| --- | --- | --- |
| Cdk5/p35 complex (from UniProt P49615 1-292; P61809 1-307) | binds | – |
| Sox6 (from UniProt P40645 1-827) | – | binds |
